No constants are given. Whether binding was seen depends on the method and setting. Some binding calls cover weakened binding; strength is not graded here.
Molecular target: human CD34 on cells (CD34+ cells of peripheral and cord blood; CD34-expressing cell line) (human) (UniProt P28906)
Test: flow cytometry, Jurkat cells, 10 µg/ml primary antibody, α-rat AF647 secondary; the dashed histogram is taken as the control (no key on the sheet)

Chains of the proteins cited; added tags and fusions are not shown. Residues count along the entry.
UniProt P28906, residues 32-385: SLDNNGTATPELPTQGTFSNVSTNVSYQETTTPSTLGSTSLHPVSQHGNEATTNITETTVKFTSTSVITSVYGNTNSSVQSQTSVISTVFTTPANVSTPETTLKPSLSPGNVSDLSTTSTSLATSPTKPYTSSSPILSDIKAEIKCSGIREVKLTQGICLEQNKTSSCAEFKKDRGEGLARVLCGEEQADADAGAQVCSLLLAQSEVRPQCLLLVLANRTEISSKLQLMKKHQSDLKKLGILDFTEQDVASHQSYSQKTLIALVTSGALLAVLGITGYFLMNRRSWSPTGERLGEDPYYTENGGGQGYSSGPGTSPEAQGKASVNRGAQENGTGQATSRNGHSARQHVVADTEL

B1: L.1c7 (antibody, V domains shown)
VH: EMQLLESGGGLVQPGGSLRLSCAASGFTFGHFAMSWVRQVPGKGLDWVSAISGGGSFTYSADSVKGRFTTSRDNSKNTLYLQMSSLRAEDTALYYCAKDQGYDYSWYYFDFWGQGTLVTVSS
VL: DIQMTQSPSTLSASVGDRVTITCRASQSISSWLAWYQQRPGKAPKLLIYKASSLESGVPSRFSGRGSGTEFTLTISSLQPDDFATYYCQQYKSHSITFGQGTRLEIK
Question: How did the binding turn out when B1 was run?
Answer: The binding was “binds”.
